No constants are given. Whether binding was seen depends on the method and setting. Some results given as binding are weak or reduced against the parent protein; the word gives no strength.
How the values were obtained:
Assay in all cases: AP-ligand binding, COS-7
[1] = molecular target: T1, human NgR1 alanine mutant 63, 65, 87, 89 (human) (UniProt Q9BZR6)
T1 sequence: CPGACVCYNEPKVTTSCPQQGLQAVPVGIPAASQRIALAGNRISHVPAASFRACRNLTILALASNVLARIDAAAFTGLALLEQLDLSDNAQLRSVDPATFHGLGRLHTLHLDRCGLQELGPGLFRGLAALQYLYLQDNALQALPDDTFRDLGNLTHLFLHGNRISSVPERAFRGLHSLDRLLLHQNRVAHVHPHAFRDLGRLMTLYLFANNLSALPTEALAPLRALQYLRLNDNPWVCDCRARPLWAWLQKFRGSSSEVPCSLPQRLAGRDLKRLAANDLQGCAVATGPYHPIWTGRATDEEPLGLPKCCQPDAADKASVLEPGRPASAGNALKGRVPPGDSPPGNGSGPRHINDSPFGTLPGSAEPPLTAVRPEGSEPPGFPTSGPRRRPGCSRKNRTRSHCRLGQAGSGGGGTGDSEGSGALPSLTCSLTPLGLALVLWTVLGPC

[2] = molecular target: T2, human NgR1 alanine mutant 82 (human) (UniProt Q9BZR6)
T2 sequence: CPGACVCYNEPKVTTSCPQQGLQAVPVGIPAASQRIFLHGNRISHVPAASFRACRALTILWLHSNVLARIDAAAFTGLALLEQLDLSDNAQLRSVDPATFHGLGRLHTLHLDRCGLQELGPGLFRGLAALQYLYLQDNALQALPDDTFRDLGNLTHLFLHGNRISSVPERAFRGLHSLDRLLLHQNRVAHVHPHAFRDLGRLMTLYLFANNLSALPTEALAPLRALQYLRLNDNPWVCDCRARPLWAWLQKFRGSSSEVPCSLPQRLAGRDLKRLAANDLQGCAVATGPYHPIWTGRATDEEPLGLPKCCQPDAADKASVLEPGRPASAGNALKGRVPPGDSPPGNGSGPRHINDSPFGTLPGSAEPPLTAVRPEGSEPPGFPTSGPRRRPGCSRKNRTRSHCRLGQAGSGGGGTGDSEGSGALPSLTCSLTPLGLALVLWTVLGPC

[3] = molecular target: T3, human NgR1 alanine mutant 171, 172, 175, 176 (human) (UniProt Q9BZR6)
T3 sequence: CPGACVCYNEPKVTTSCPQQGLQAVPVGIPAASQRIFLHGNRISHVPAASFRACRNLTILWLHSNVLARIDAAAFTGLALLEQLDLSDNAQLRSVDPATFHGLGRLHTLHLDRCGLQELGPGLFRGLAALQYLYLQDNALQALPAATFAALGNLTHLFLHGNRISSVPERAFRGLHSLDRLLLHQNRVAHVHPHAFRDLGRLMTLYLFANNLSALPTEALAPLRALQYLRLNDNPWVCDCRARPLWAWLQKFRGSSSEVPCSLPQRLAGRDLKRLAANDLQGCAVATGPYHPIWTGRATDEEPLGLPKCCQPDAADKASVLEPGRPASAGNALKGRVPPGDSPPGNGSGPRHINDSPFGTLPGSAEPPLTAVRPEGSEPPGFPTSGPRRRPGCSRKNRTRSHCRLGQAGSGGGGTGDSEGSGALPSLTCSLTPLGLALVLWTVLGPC

[4] = molecular target: T4, human NgR1 alanine mutant 138 (human) (UniProt Q9BZR6)
T4 sequence: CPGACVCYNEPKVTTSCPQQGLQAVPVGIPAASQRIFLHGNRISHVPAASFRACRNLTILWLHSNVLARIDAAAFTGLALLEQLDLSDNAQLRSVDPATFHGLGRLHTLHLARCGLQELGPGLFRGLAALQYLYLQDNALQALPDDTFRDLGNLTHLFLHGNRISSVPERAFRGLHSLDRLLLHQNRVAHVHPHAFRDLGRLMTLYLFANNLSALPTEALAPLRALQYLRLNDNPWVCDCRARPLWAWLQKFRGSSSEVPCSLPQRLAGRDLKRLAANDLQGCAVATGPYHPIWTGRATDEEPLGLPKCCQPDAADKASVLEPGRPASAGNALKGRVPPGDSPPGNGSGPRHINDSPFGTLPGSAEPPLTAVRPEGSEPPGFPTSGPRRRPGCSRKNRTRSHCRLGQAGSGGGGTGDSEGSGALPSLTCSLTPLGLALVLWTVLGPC

[5] = molecular target: T5, human NgR1 alanine mutant 267, 269 (human) (UniProt Q9BZR6)
T5 sequence: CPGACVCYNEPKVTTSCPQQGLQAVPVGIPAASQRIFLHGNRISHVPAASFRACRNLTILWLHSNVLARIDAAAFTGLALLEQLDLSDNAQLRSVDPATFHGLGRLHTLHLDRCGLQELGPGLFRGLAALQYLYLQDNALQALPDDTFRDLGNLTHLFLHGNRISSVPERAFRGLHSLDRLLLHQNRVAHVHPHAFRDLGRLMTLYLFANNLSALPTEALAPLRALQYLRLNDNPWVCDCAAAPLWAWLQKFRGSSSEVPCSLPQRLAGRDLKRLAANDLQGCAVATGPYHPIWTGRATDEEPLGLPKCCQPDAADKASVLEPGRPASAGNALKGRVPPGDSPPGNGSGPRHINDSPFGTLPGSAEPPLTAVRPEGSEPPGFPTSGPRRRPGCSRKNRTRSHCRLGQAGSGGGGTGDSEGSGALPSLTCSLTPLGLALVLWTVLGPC

[6] = molecular target: T6, human NgR1 alanine mutant 36, 38, 61 (human) (UniProt Q9BZR6)
T6 sequence: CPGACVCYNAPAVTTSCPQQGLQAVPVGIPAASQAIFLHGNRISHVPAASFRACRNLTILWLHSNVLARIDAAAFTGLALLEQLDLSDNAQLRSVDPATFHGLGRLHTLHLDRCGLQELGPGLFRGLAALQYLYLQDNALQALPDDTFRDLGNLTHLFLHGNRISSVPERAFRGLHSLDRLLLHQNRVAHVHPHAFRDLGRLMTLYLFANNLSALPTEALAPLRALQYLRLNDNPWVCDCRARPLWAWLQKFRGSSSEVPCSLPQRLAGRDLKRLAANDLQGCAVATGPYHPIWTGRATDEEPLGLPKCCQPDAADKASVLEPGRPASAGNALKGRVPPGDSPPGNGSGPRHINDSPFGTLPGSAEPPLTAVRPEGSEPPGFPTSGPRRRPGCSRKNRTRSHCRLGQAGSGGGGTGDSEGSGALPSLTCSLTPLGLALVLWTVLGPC

Measured: binding

B1: AP-Nogo-66 (ligand, UniProt Q9NQC3 1055-1120, looked up)
chain: RIYKGVIQAIQKSDEGHPFRAYLESEVAISEELVQKYSNSALGHVNCTIKELRRLFLVDDLVDSLK
notes: domain: Nogo-66; construct described elsewhere (Fournier 2001); also called AP-Ng66; Ng66; not shown: alkaline phosphatase (AP); construct described elsewhere
binds: [1] | [2] | [3] | [4] | [5] | [6]

B2: AP-fused Amino-Nogo fragment B4C (a.a. 950-1018) (ligand)
chain: LLPPDVSALATQAEIESIVKPKVLVKEAEKKLPSDTEKEDRSPSAIFSAELSKTSVVDLLYWRDIKKTG
notes: also called AmNg B4C; AP-B4C; not shown: alkaline phosphatase (AP), vector pcAP6
binds: [1] | [2] | [3] | [4] | [5] | [6]

Source: patent US20090111753A1, “Nogo-A Polypeptide Fragments, Variant Nogo Receptor-1 Polypeptides, and Uses Thereof” (Yale University, priority 2004, published 2009)
